Test results taken from US20190015518A1, “DRUG DELIVERY COMPOSITIONS AND METHODS” (priority 2016, published 2019).
Some of these results come from one statement about several compounds together.

Assay: HPLC of small molecular platinum species after storage
Format: physicochemical
Conditions: solution stored at 4° C. for 4 days; limit of quantitation
Procedure: Small molecular platinum species including cisplatin, Pt-monoaqua, and Pt-diaqua were quantified by HPLC. The mobile phase was sodium phosphate solution (10-mM, pH 3.0) at a flow rate of 0.25 mL/min on an Alltech® 250 mm×4.6 mm M/M RP8/cation column thermostated at 25° C. […] The filtrate was immediately injected into the HPLC.

Substance	level of diaqua [ng/mL]
HA-cis-[Pt(NH3)2(N^α-Acetyl-L-Lysine)] [33HA-Lys-Pt]	< 18400
HA-cis-[Pt(NH3)2(N^α-Acetyl-L-Lysine)] [75HA-Lys-Pt]	< 18400
